Results published in publication PMC5660093, “Structure of SgK223 pseudokinase reveals novel mechanisms of homotypic and heterotypic association” (Nature Communications, 2017).
Changes are numbered by the printed parent chain. Names may count otherwise. Results are given in words; binding and its absence hold for the method and conditions named. For some assays here: Binding seen in cells or lysates may run through a third protein. Some binding calls cover weakened binding; strength is not graded here. For some assays here: Sequences can lack the tags named with a protein. Each block holds one binder with its values, some of them ahead of it.

Assays:
[1] = molecular target: T1, SgK269-αN1-PsK-Cter F1609A (human) (UniProt Q9H792); experiment: SEC; SgK223 and SgK269 proteins mixed equimolar at 29.06 μM, 15 min on ice; Superdex 200 Increase 10/300 GL; 20 mM Tris pH 8.5, 200 mM NaCl, 5% glycerol, 1 mM TCEP; preformed homodimers mixed; both purified
T1 sequence: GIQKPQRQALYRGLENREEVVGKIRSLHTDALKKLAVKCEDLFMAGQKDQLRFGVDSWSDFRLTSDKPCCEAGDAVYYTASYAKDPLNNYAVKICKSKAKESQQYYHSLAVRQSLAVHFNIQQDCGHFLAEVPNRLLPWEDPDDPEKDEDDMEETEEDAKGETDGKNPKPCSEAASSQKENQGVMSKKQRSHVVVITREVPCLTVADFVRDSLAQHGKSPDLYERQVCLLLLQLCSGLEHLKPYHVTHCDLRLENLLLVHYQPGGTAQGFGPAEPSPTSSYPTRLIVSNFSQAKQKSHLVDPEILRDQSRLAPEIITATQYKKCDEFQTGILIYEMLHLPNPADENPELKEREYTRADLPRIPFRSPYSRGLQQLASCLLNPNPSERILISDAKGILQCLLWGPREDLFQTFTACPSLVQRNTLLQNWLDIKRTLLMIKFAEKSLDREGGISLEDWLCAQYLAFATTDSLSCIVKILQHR

[2] = molecular target: T2, SgK269-αN1-PsK-Cter (WT) (human, UniProt Q9H792 1267-1746); experiment: as above
T2 construct: SgK269 (PEAK1), human, residues 1267-1746: αN1 helix, pseudokinase domain and C-terminal helices; also called SgK269-WT (αN1-PsK-Cter); SgK269-WT; source: E. coli C41(DE3), purified (Ni-NTA, SEC)
T2 sequence (looked up): T1 sequence with A343F

[3] = molecular target: SgK223-PsK-Cter (human) (UniProt Q86YV5); experiment: AUC; sedimentation velocity of SgK223-PsK-Cter at 4.6 μM; 20 mM Tris-HCl, 150 mM NaCl, pH 8.0, 20 °C; both purified
[4] = molecular target: T3, Flag-tagged FL SgK223-WT (UniProt Q86YV5); experiment: co-IP; Flag-tagged FL SgK223 WT co-expressed with HA-tagged FL SgK223 WT or mutants in HEK293 cells; immunoprecipitation with anti-FLAG, blot with anti-HA
T3 sequence: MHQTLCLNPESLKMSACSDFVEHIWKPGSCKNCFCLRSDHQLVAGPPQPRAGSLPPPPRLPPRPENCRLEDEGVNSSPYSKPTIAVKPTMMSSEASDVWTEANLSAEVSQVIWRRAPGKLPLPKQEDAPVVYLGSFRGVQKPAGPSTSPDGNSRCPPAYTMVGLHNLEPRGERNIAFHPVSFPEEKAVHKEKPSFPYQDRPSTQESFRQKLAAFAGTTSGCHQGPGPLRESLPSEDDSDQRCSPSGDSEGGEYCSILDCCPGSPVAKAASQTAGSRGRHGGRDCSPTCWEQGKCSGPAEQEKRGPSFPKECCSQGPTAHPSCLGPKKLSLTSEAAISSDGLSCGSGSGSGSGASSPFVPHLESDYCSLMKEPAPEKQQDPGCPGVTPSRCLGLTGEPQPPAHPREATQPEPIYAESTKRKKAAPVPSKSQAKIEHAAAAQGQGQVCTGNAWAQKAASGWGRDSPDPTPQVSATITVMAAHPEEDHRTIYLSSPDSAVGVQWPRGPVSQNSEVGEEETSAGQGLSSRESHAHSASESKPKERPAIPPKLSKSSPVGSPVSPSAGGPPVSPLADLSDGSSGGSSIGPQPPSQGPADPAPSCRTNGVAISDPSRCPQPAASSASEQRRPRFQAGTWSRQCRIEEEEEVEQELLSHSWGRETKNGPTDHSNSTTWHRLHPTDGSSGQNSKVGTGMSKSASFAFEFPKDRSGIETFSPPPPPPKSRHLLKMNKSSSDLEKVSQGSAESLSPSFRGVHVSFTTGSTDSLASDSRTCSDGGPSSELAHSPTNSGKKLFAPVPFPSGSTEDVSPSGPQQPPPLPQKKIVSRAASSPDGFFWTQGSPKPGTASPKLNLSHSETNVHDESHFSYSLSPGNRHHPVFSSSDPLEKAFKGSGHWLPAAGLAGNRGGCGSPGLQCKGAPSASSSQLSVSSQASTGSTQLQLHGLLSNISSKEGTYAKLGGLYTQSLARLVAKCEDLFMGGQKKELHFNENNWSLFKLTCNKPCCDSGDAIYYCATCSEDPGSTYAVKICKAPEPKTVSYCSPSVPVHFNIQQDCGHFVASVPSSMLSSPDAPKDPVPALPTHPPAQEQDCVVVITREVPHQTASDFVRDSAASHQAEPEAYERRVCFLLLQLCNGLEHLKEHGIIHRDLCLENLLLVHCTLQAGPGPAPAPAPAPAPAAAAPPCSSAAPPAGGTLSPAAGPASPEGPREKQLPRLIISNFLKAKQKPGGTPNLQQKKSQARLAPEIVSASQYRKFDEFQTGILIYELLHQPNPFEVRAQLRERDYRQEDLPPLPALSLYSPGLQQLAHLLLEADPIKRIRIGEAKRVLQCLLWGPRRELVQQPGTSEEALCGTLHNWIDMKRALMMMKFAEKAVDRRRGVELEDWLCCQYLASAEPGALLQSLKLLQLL

binding [2]: no binding (tested: 29.06 μM)
B2: SgK223 αN1-PsK-Cter I1243A (domain or fragment, human, UniProt Q86YV5 932-1406, looked up)
chain: GSTQLQLHGLLSNISSKEGTYAKLGGLYTQSLARLVAKCEDLFMGGQKKELHFNENNWSLFKLTCNKPCCDSGDAIYYCATCSEDPGSTYAVKICKAPEPKTVSYCSPSVPVHFNIQQDCGHFVASVPSSMLSSPDAPKDPVPALPTHPPAQEQDCVVVITREVPHQTASDFVRDSAASHQAEPEAYERRVCFLLLQLCNGLEHLKEHGIIHRDLCLENLLLVHCTLQAGPGPAPAPAPAPAPAAAAPPCSSAAPPAGGTLSPAAGPASPEGPREKQLPRLIISNFLKAKQKPGGTPNLQQKKSQARLAPEAVSASQYRKFDEFQTGILIYELLHQPNPFEVRAQLRERDYRQEDLPPLPALSLYSPGLQQLAHLLLEADPIKRIRIGEAKRVLQCLLWGPRRELVQQPGTSEEALCGTLHNWIDMKRALMMMKFAEKAVDRRRGVELEDWLCCQYLASAEPGALLQSLKLLQLL
notes: SgK223 (Pragmin), human, residues 932-1406; source: E. coli C41(DE3), purified (Ni-NTA, SEC)

binding [2]: no binding (tested: 29.06 μM)
B3: SgK223-αN1-PsK-Cter F1271A (domain or fragment, human, UniProt Q86YV5 932-1406, looked up)
chain: B2 chain with A312I, F340A
notes: SgK223 (Pragmin), human, residues 932-1406; also called SgK223-αN1-PsK-Cter Phe1271Ala; His-SgK223-αN1-PsK-Cter; source: E. coli C41(DE3), purified (Ni-NTA, SEC); not shown: His tag, N-terminal, kept

binding [2]: no binding (tested: 29.06 μM)
B4: SgK223-αN1-PsK-Cter Y1282A (domain or fragment, human, UniProt Q86YV5 932-1406, looked up)
chain: B2 chain with A312I, Y351A
notes: as for B2

binding [3]: no binding (tested: 4.6 μM)
B5: SgK223-PsK-Cter (domain or fragment, UniProt Q86YV5 975-1406)
chain: MGGQKKELHFNENNWSLFKLTCNKPCCDSGDAIYYCATCSEDPGSTYAVKICKAPEPKTVSYCSPSVPVHFNIQQDCGHFVASVPSSMLSSPDAPKDPVPALPTHPPAQEQDCVVVITREVPHQTASDFVRDSAASHQAEPEAYERRVCFLLLQLCNGLEHLKEHGIIHRDLCLENLLLVHCTLQAGPGPAPAPAPAPAPAAAAPPCSSAAPPAGGTLSPAAGPASPEGPREKQLPRLIISNFLKAKQKPGGTPNLQQKKSQARLAPEIVSASQYRKFDEFQTGILIYELLHQPNPFEVRAQLRERDYRQEDLPPLPALSLYSPGLQQLAHLLLEADPIKRIRIGEAKRVLQCLLWGPRRELVQQPGTSEEALCGTLHNWIDMKRALMMMKFAEKAVDRRRGVELEDWLCCQYLASAEPGALLQSLKLLQLL

Further lines, the binder ahead of its results:

B1: SgK223-αN1-PsK-Cter (WT) (domain or fragment, human, UniProt Q86YV5 932-1406, looked up)
chain: B2 chain with A312I
notes: SgK223 (Pragmin), human, residues 932-1406: αN1 helix, pseudokinase domain and C-terminal helices; Modified pCOLD IV vector with an N-terminal His TEV cleavage tag; Monomer MW printed as 54 kDa; A seleno-methionine form was also crystallised; also called WT-SgK223-αN1-PsK-Cter; SgK223-WT (αN1-PsK-Cter); source: E. coli C41(DE3), purified (Ni-NTA, SEC)
binding [1]: no binding (tested: 29.06 μM)

B6: HA-tagged FL SgK223-WT (HEK293) (protein, UniProt Q86YV5 1-1406)
chain: T3 sequence
binding [4]: binds

B7: HA-tagged FL SgK223 Y1282A (HEK293) (protein, UniProt Q86YV5 1-1406)
chain: T3 sequence with Y1282A
binding [4]: binds

B8: HA-tagged FL SgK223 I1243A (HEK293) (protein, UniProt Q86YV5 1-1406)
chain: T3 sequence with I1243A
binding [4]: binds
